Results deposited as PubChem BioAssay AID1159584 (Peter MacCallum Cancer Centre, 2016)

Test: 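Knock-downs that harm CDH1-null cells more than parental MCF10A cells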 (primary screen)
Cells: human MCF10A breast epithelial cells, parental and CDH1-null
Reagent: siRNA against human genes
Measured: 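Cell viability by CellTiter-Glo ATP luminescence, each line scaled to the mean of mock wells across plates, then CDH1-null over parental ratio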
Direction: CDH1-null / parental viability ratio: higher = CDH1-null cells survive relatively better than parental
In all, the deposit lists about 18,000 reagents; shown is a random part of them. The numbers tell different reagents against one gene apart. Further read-outs or replicates are left out here. Not given: the amount of reagent, the time to read-out.

| gene | siRNA no. | CDH1-null / parental viability ratio |
| --- | --- | --- |
| TNFAIP2 | 1 | 1.14 |
| MROH2B | 1 | 0.93 |
| TIMM9 | 1 | 1.08 |
| COBL | 1 | 1.12 |
| BMPR2 | 1 | 1.04 |
| RFFL | 1 | 0.99 |
| VDR | 1 | 1.19 |
| METTL5 | 1 | 1.11 |
| OR10A4 | 1 | 0.84 |
| MEX3C | 1 | 1.02 |
| DDX23 | 1 | 1.42 |
| SEC24A | 1 | 0.9 |
| PHC1 | 1 | 1.19 |
| PCK2 | 1 | 0.95 |
| LTF | 1 | 1.31 |
| SLC22A8 | 1 | 0.78 |
| RANBP6 | 1 | 1.07 |
| CDKN1A | 1 | 1.04 |
| ZNF593 | 1 | 1.17 |
| WDR88 | 1 | 0.87 |
| ADM | 1 | 1.26 |
| UCK2 | 1 | 1.04 |
| KIR2DL5A | 1 | 1.15 |
| AASDH | 1 | 1.04 |
| ASTE1 | 1 | 1.12 |
| DDX3Y | 1 | 0.93 |
| CHN1 | 1 | 1.23 |
| ARMC2 | 1 | 0.82 |
| CENPBD1P | 1 | 1.06 |
| RACGAP1 | 1 | 1.08 |
| NUDC | 1 | 0.87 |
| MTFMT | 1 | 1.09 |
| HBZ | 1 | 0.88 |
| NUDT5 | 1 | 1.39 |
| GLE1 | 1 | 0.85 |
| GPAA1 | 1 | 0.89 |
| FAM167B | 1 | 0.95 |
| CFAP68 | 1 | 1.21 |
| CCL14 | 1 | 1.05 |
| TBX6 | 1 | 1.06 |
| CENPM | 1 | 1.24 |
| NPB | 1 | 0.92 |
| HES4 | 1 | 1.79 |
| ALG5 | 1 | 1.16 |
| KIFAP3 | 1 | 1.14 |
| FAM90A1 | 1 | 0.71 |
| SERPINB2 | 1 | 1.07 |
| EDEM1 | 1 | 1.04 |
| BIK | 1 | 0.91 |
| CDH17 | 1 | 0.94 |
| RELCH | 1 | 1.23 |
| TEX19 | 1 | 1.25 |
| IL1R2 | 1 | 1.05 |
| FRYL | 1 | 0.94 |
| SALL4 | 1 | 1.21 |
| ASPM | 1 | 1.04 |
| MRPS16 | 1 | 1.04 |
| GSX1 | 1 | 0.91 |
| OR52D1 | 1 | 1.36 |
| IFRD1 | 1 | 0.85 |
| NME7 | 1 | 0.85 |
| COMMD4 | 1 | 1.29 |
| SHPRH | 1 | 0.88 |
| WDR72 | 1 | 1.16 |
| NAMPT | 1 | 0.93 |
| GRID2 | 1 | 1.02 |
| SPATA31A1 | 1 | 0.98 |
| SPATA31A1 | 2 | 0.81 |
